{"source": "patent US20030028927A1", "about": "(priority 2001, published 2003)", "assay": "Rate of GdA decay in the light, assessed phenotypically", "type": "physicochemical", "conditions": "hypocotyl growth after 7 days in the dark", "note": "At least one structure is not confirmed: it was looked up by name or label, or the drawing left a doubt.", "data": [{"smiles": "COC1=C2C[C@@H](C)C[C@H](OC)[C@H](O)[C@@H](C)/C=C(\\C)[C@H](OC(N)=O)[C@@H](OC)/C=C\\C=C(/C)C(=O)NC(=CC1=O)C2=O", "note": "[GdA, geldanamycin]", "values": [{"measurement": "effect of light pre-exposure on GdA potency", "setting": "light exposure 2-4 hrs", "result": "little effect"}, {"measurement": "effect of light pre-exposure on GdA potency", "setting": "light exposure 48 hrs", "result": "eliminated it"}]}]}
